The values below come from PMC12144199.

Sequences of proteins named here, by UniProt entry; tags and fusion partners are left off.
UniProt P07355: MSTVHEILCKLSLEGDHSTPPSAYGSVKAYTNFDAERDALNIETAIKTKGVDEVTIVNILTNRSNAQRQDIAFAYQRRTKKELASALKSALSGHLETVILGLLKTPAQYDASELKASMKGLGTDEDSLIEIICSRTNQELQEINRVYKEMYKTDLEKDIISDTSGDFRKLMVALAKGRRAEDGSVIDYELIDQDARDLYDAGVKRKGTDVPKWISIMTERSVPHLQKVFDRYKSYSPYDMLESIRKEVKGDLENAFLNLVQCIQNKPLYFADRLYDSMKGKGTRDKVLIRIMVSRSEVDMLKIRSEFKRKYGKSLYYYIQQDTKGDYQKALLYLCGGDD

The target in this test is T1, S100A16 (human (endogenous in U2OS and MG-63)) (UniProt Q96FQ6).
T1 sequence: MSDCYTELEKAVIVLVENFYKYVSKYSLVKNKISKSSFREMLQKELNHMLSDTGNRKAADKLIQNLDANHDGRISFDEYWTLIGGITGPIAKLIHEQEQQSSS
As to the kind of experiment: co-IP; endogenous co-IP from U2OS and MG-63 RIPA lysates (1 mg protein); S100A16 antibody or ANXA2 antibody overnight at 4 °C, protein A/G magnetic beads 2 h; Western blot for S100A16 and ANXA2. Background: A western blot detects proteins with antibodies after separation by electrophoresis.

No constants are given. Whether binding was seen depends on the method and setting. Binding seen in cells or lysates may run through a third protein. Some results given as binding are weak or reduced against the parent protein; the word gives no strength.

Take Annexin A2 (from UniProt P07355 1-339): the binding entry is “binds”.
